For at least one entry, the source does not settle the construct or the ends of the probe. For some assays here: A negative result means that nothing was seen under these conditions.
Experiments:
[1] = tested on: GST; assay: EMSA; details: ends filled in with biotin-11-dUTP, Tcf7: 10 mM Tris pH 7.5, 50 mM KCl, 1 mM DTT, 2.5 mM EDTA, 50 ng/uL poly(dAdT), 0.05% NP40, 20 min, Gata.a: 10 mM Tris pH 7.5, 50 mM KCl, 5 mM MgCl2, recombinant protein, label: biotin, letters put together from the description
[2] = tested on: Tcf7-GST fusion (Ciona intestinalis); assay: EMSA; details: ends filled in with biotin-11-dUTP, Tcf7: 10 mM Tris pH 7.5, 50 mM KCl, 1 mM DTT, 2.5 mM EDTA, 50 ng/uL poly(dAdT), 0.05% NP40, 20 min, Gata.a: 10 mM Tris pH 7.5, 50 mM KCl, 5 mM MgCl2, recombinant protein, protein details: GST, label: biotin, letters put together from the description

“AAAGTTCACCGACAAAGATAAGATTT (double strand) [Fgf9/16/20 Tcf7 site b probe]”: no binding [1]; binds [2].
